# In PubChem BioAssay AID540275 (National Center for Advancing Translational Sciences (NCATS), 2011):
# Chains of the proteins cited; added tags and fusions are not shown.
# UniProt Q8NER1, whole entry, looked up: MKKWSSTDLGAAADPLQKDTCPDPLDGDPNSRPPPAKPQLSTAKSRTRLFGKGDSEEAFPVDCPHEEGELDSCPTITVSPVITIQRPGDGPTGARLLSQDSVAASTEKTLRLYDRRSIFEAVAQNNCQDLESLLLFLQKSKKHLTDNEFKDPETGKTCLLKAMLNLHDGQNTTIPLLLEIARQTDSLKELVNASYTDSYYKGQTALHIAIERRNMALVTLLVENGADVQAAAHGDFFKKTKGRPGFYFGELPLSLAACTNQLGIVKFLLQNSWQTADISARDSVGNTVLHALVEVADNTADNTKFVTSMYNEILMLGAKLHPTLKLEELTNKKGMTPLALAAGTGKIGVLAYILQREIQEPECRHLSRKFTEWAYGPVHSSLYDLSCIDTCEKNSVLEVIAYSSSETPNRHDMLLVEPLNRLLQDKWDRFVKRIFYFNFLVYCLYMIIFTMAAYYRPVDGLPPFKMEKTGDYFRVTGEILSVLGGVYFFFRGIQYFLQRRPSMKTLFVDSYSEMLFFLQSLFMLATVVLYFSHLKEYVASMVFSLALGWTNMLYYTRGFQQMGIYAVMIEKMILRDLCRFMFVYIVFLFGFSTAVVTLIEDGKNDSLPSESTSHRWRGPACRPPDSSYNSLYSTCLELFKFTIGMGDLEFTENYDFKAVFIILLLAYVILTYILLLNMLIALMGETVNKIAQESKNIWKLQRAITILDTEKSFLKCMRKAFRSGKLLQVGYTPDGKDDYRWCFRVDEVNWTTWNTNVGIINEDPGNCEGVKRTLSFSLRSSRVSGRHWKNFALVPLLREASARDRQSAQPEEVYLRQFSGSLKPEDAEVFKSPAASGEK
# About 620 (0.19%) of roughly 320,000 compounds were called active. This list was built around the results that the source calls inconclusive (neither active nor inactive); the mix of calls is not that of the screen. No stated cut-off is given here; in the data, active means activation above about 80%; inconclusive means between about 30% and that limit; inactive means weaker than that.
# Molecular target: Transient receptor potential cation channel subfamily V member 1 (Homo sapiens) (UniProt Q8NER1)
# Test: HTS Assay for Compounds that Act as Agonists of the Vanilloid Receptor 1; further: 0% is about no effect
# Conditions: TRPV1-expressing cells, Fluo-8 calcium influx, agonist mode; at 8.33 µM, hits give high values
# Summary of the method: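 TRPV1-expressing cells were cultured overnight at 35.5C and loaded with Fluo-8 calcium dye for 40 to 90 min at room temperature. After a 10 s baseline, compound was added and calcium influx was read kinetically for 3 min (ex 480/em 520 nm).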
row,Compound,activation
1,C=CC(=O)NCCCc1cc(C(C)(C)C)c(O)c(C(C)(C)C)c1,inconclusive: 64.7%
2,CCOC(=O)C1(Cc2ccccc2C(F)(F)F)CCN(C(C)CCn2cccn2)CC1 (stereo not given),inactive: 10.7%
3,COc1ccc(S(=O)(=O)N2CCN(C(=S)NCCc3ccccc3)CC2)cc1,inconclusive: 36%
4,COC(=O)C1SCC2C(=O)N(Cc3ccc(Cl)c(Cl)c3)CC(=O)N21 (stereo not given),inconclusive: 33.3%
5,CCOC(=O)[C@@H]1[C@H]2COc3ccc(Br)cc3[C@H]2N2C(=O)N(c3ccc(C)cc3)C(=O)[C@]12C,inactive: 1.49%
6,CCOC(=O)c1c(-c2ccccc2)csc1NC(=O)/C(C#N)=C/c1ccc(O)c(OC)c1,inactive: 22.1%
7,C=CCn1c(CCC(=O)O)ccc1-c1ccccc1,inactive: -2.94%
8,O=C(CS(=O)(=O)c1ccccc1)Nc1ccc(Br)cn1,inconclusive: 30.9%
9,CCCCCn1c(=N)c(S(=O)(=O)c2ccc(Cl)cc2)cc2c(=O)n3cccc(C)c3nc21,inconclusive: 30.9%
10,O=C1CCN(Cc2ccc(O)cc2)CCN1[C@H](CO)c1ccccc1,inactive: -4.29%
11,O=C(CCc1ccccc1)N1CCCC(Nc2ccc(F)cc2)C1 (stereo not given),active: 87.4%
12,CCC(=O)N1CCN(c2nc(-c3ccc(Cl)cc3)cs2)CC1,inconclusive: 53.7%
13,O=C(Cc1ccccc1)N1CCN(c2ccccc2F)CC1,inconclusive: 49.7%
14,O=C(C1CCCN(S(=O)(=O)Cc2ccccc2)C1)N1CCc2ccccc21 (stereo not given),inactive: 7.03%
15,COc1ccc(-c2cn3c4c(sc3n2)CCCC4)cc1,active: 80.7%
16,CCN(CC(=O)NCc1ccc(Cl)cc1)C(=O)COc1ccc(C)cc1C,inconclusive: 76.8%
17,Cc1nnc(SCC(=O)NC2CCCc3c2cnn3-c2ccc(F)cc2F)o1 (stereo not given),inactive: 2.78%
18,CNc1snc(C)c1C(=O)OCC(=O)Nc1ccc(C)cc1F,inconclusive: 37.8%
19,COC(=O)[C@H](Cc1ccccc1)NC(=O)c1ccc2ccccc2n1,inconclusive: 40%
20,Cc1cc(=O)oc2c1ccc1oc(/C(=N/O)c3ccccc3)c(C)c12,inactive: 0.42%
21,COc1cccc(COC(=O)C2CCN(S(=O)(=O)c3ccc(F)cc3)CC2)c1OC,inactive: 8.04%
22,O=C(NNC1=C(C(=O)C(F)(F)F)CCC1)c1ccccc1O,inconclusive: 34%
23,CCn1c(SCC(=O)O)nnc1-c1ccccc1OC,inconclusive: 66.3%

row,Compound,activation
1,CCc1ccc(OCC(=O)Nc2ccncc2)c(Br)c1,inconclusive: 56.7%
2,COc1ccc(CCNC(=O)COc2ccc(-c3ccc(C)cc3)cc2)cc1OC,inactive: 1.73%
3,Nc1c(C(=O)c2ccc(Cl)cc2)sc2nsc(SCCN3CCOCC3)c12,inconclusive: 36.3%
4,CSc1ccc(Cl)c(C(=O)NCCOc2cc(C(C)C)ccc2C)c1,inconclusive: 41.3%
5,CSc1ccc(CN(C)CC(=O)NC(C)c2ccccc2)cc1 (stereo not given),inconclusive: 38.2%
6,COc1ccccc1Nc1ccncc1[N+](=O)[O-],inconclusive: 39.8%
7,COc1cc(CN2CCNC(=O)C2CC(=O)N2CCCN(C(C)=O)CC2)cc(OC)c1 (stereo not given),inactive: -2.58%
8,NC(=O)C1CCN(c2ccc([N+](=O)[O-])cc2Cl)CC1,inconclusive: 73.4%
9,Cc1ccc(NC(=O)C2Cc3ccccc3CN2C(=O)c2ccccc2)cc1Cl (stereo not given),inconclusive: 37.1%
10,Cc1cc(N2CCN(C(c3ccccc3)c3ccccc3)CC2)n2ncnc2n1,inconclusive: 42.2%
11,COc1ccccc1OCCC(=O)OCC(=O)Nc1cccc(Br)c1,inactive: -3.01%
12,O=c1c(-c2ccc3c(c2)OCCO3)coc2cc(OC3OC(CO)C(O)C(O)C3O)ccc12 (stereo not given),inactive: -4.77%
13,O=C1NC(c2cccc(Cl)c2)Oc2ccccc21 (stereo not given),inactive: -1.99%
14,Cc1ccc(Cc2c(C)c(C#N)c3[nH]c4ccccc4n3c2=O)cc1,inconclusive: 30.9%
15,C#CCn1cc(C=C2C(=O)c3ccccc3C2=O)c2ccccc21,inactive: 4.49%
16,COc1ccc(Nc2ncnc3c2oc2ccccc23)cc1,active: 93.2%
17,Cc1ccc(S(=O)(=O)/N=C2\C(=O)c3ccccc3C([O-])=C2n2cc[n+](CCC(C)C)c2)cc1,inactive: 0.658%
18,CCOC(=O)c1cn(-c2ccccc2)nc1-c1cccnc1,inconclusive: 36.8%
19,CC(C)(C)CC(C)(C)NC(=O)Nc1cccc([N+](=O)[O-])c1,inconclusive: 72.7%
20,O=C(NCCc1ccccc1)/C(=C/c1ccco1)c1ccccc1,inconclusive: 40.7%
21,CCc1cc2c(=O)c(-c3nc4ccccc4[nH]3)coc2c(CN2CCCCC2)c1O,inconclusive: 44.5%
22,COc1cc(C2CC(=O)c3c([nH]c(C(=O)OCCOC(C)C)c3C)C2)cc(OC)c1OC (stereo not given),inactive: -2.7%
23,C/C(=N\NC(=O)COc1ccc(C(C)(C)C)cc1)c1cc2ccccc2o1,inactive: 8.49%

row,Compound,activation
1,COc1ccc(CC(=O)Nc2ccc3c(c2)CCC3)cc1OC,inconclusive: 79.5%
2,Cc1cc(C)c(NC(=S)N(CCN(C)C)Cc2cccs2)c(C)c1,inactive: -4.94%
3,O=C1C=CC(O)(c2cc(=O)c3c(O)cc(O)cc3o2)C=C1,inactive: 0.0858%
4,Cc1cc(C(=O)N/N=C/c2ccc(C)s2)n[nH]1,inconclusive: 35.9%
5,COc1ccc(-n2c(SCc3ccc([N+](=O)[O-])cc3)nnc2-c2ccccc2)cc1,inconclusive: 62.4%
6,COCCN(C(=O)COC(=O)C1CC1C)c1c(N)n(Cc2ccccc2)c(=O)[nH]c1=O (stereo not given),inactive: 1.02%
7,S=c1[nH]nc(CNc2ccc(Cl)cc2)n1Cc1ccccc1,inactive: 0.875%
8,CC(C)N(C(=O)Nc1ccc2nsnc2c1)C(C)C,inactive: 5.85%
9,Cc1ccc(S(=O)(=O)N(C)C)cc1NC(=O)C(C)OC(=O)C1CCCC1 (stereo not given),inactive: 3.08%
10,C=CCc1cccc(/C=N/NC(=O)c2ccccc2OC)c1O,inconclusive: 70.9%
11,C/C=C/c1ccc(OCC(O)CN2CCCCC2CC)c(OC)c1 (stereo not given),inactive: 3.75%
12,Cc1cccc(N2CCN(C(=O)CCn3c(=O)[nH]c4ccccc4c3=O)CC2)c1C,inconclusive: 32.7%
13,Cc1[nH]c(=O)[nH]c(=O)c1S(=O)(=O)N1CCCC(C(=O)NCCc2ccc(Cl)cc2)C1 (stereo not given),inactive: -1.38%
14,C[C@@]12C(=O)N(CC3CCCO3)CC(=O)N1[C@H]1c3ccccc3OC[C@@H]1[C@@H]2c1ccccc1 (stereo not given in full),inconclusive: 31.1%
15,CC(=O)Nc1cc(C(=O)NCc2ccco2)ccc1Sc1ccc(Cl)cc1,inconclusive: 31.2%
16,CCC(=O)Oc1ccc2c(C)cc(=O)oc2c1C,inactive: -1.49%
17,COc1ccc(NC(=O)c2ccc(NC(=O)CSc3nc(N)cc(=O)[nH]3)cc2)cc1,inactive: -2.05%
18,CCOc1ccc(CNC(=O)c2ccc(Sc3ccc(Cl)cc3)c(NC(C)=O)c2)cc1OC,inconclusive: 43%
19,COc1ccc(NC(=O)/C=C/c2cccc(Br)c2)cn1,inconclusive: 56.8%
20,Cc1cc(C)c(OCCN(C)C)c(Cl)c1,inactive: 3.23%
21,COc1ccc(/C=C2\SC(=S)N(CCCC(=O)Nc3cc(C)on3)C2=O)cc1OC,inactive: 5.11%
22,Cc1c(O)ccc(-c2[nH]ncc2-c2nc3ccccc3s2)c1O,inactive: 0.567%
23,CSc1ccc(CN(C)C(=O)c2cc3ccccc3o2)cc1,inconclusive: 44.8%

row,Compound,activation
1,COc1ccc(-c2cc(C(F)(F)F)nc(SCC(=O)Nc3cc(C)on3)n2)cc1,inactive: -0.529%
2,COc1ccc(C2=NOC(C(=O)Nc3cccc(O)c3)C2)cc1 (stereo not given),inconclusive: 59.7%
3,Cc1ccc(S(=O)(=O)N2CCOCC2)cc1C(=O)NCc1ccco1,inactive: 4.82%
4,COc1ccc(CNC(=O)c2ccc(-c3ccccc3)cc2)cc1OC,inconclusive: 67.5%
5,c1coc(-c2nc3nc4ccccc4n3nc2-c2ccco2)c1,inconclusive: 47.8%
6,CC(=O)NC1(c2ccccc2)CCN(c2cc(C)nc(-c3ccccc3)n2)CC1,inconclusive: 31.1%
7,Nc1c(Cl)ncnc1N/N=C/c1ccc2ccccc2n1,inactive: 7.99%
8,Cc1nnc2nc(-c3ccccc3)nc(-c3ccccc3)n12,inconclusive: 69.3%
9,O=C(Nc1ccc(Cl)cn1)c1ccc(COCC(F)(F)C(F)F)o1,inconclusive: 39%
10,CC(C)C(=O)NC(c1ccccc1)c1cc([N+](=O)[O-])c2cccnc2c1O (stereo not given),inactive: -1.06%
11,CCc1cc(C(=O)Nc2ccc(C)cc2Br)cs1,inconclusive: 33.8%
12,O=[N+]([O-])c1cc(C(F)(F)F)cc([N+](=O)[O-])c1NCCNC(=S)Nc1ccc(Cl)c(Cl)c1,inactive: 0.308%
13,S=C(NCc1ccccc1Cl)NC1CCCC1,inconclusive: 42.4%
14,CC(C)(C)c1ccc(C(=O)N2CCC(C(=O)NCc3ccncc3)CC2)cc1,inconclusive: 54.6%
15,CCCc1cc(C(=O)Nc2ccc(Cl)cn2)cs1,inconclusive: 61.4%
16,COc1cc(C(=O)N[C@H](C(=O)NC(C)C23CC4CC(CC(C4)C2)C3)C(C)C)cc(OC)c1OC (stereo not given in full),inconclusive: 35.3%
17,Cc1nnsc1C(=O)N/N=C/c1ccc2ccccc2c1O,inconclusive: 41.1%
18,CCOC(=O)c1ccc(NC(=S)N2CCCC2)cc1,inconclusive: 34.6%
19,COc1ccc(N2CCN(Cc3nc4ccccc4n3C)CC2)cc1,inactive: -1.69%
20,Cc1ccc(C)c(OCCCC(=O)Nc2nccs2)c1,inconclusive: 39%
21,CCC1CCCCN1S(=O)(=O)c1ccc(NC(=O)c2cccnc2)cc1 (stereo not given),inconclusive: 37.8%

# Shown with tabs: entries from further up.
row	Compound	activation
6	CC(=O)NC1(c2ccccc2)CCN(c2cc(C)nc(-c3ccccc3)n2)CC1	inconclusive: 31.1%
8	Cc1nnc2nc(-c3ccccc3)nc(-c3ccccc3)n12	inconclusive: 69.3%
10	CC(C)C(=O)NC(c1ccccc1)c1cc([N+](=O)[O-])c2cccnc2c1O (stereo not given)	inactive: -1.06%
11	CCc1cc(C(=O)Nc2ccc(C)cc2Br)cs1	inconclusive: 33.8%
16	COc1cc(C(=O)N[C@H](C(=O)NC(C)C23CC4CC(CC(C4)C2)C3)C(C)C)cc(OC)c1OC (stereo not given in full)	inconclusive: 35.3%
17	Cc1nnsc1C(=O)N/N=C/c1ccc2ccccc2c1O	inconclusive: 41.1%
20	Cc1ccc(C)c(OCCCC(=O)Nc2nccs2)c1	inconclusive: 39%
